# Measured values reported in the supplement of paper PMC8728848.
# The other results are listed elsewhere or left out.
# Key:
# Assay in all cases: glycan array binding signal (z-score within array); higher = stronger binding
# Conditions in all cases: glycan notation: IUPAC condensed, linker removed
# [1] = biological target: Fuc(a1-2)Gal6S(b1-3)GlcNAc6S
# How it was run: (§1)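 Columns mapping to the same glycan were averaged after glycan names were converted to IUPAC-condensed notation. The data come from 3228 arrays in the Consortium for Functional Glycomics database, limited to those with an available protein sequence. Binding is reported as a within-array Z-score averaged across arrays of one protein sequence and across linkers.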
# Fuc(a1-2)Gal6S(b1-4)Glc = biological target: Fuc(a1-2)Gal6S(b1-4)Glc
# How it was run: as §1
# [2] = biological target: Fuc(a1-2)Gal6S(b1-4)Glc6S
# How it was run: as §1
# Fuc(a1-2)[Gal(a1-3)]Gal = biological target: Fuc(a1-2)[Gal(a1-3)]Gal
# How it was run: as §1
# [3] = biological target: Fuc(a1-2)[Gal(a1-3)]Gal(b1-3)GalNAc
# How it was run: as §1
# [4] = biological target: Fuc(a1-2)[Gal(a1-3)]Gal(b1-3)GalNAc(b1-3)Gal(a1-4)Gal(b1-4)Glc
# How it was run: as §1
# [5] = biological target: Fuc(a1-2)[Gal(a1-3)]Gal(b1-3)GlcNAc
# How it was run: as §1
# [6] = biological target: Fuc(a1-2)[Gal(a1-3)]Gal(b1-3)GlcNAc(b1-2)Man(a1-3)[Fuc(a1-2)[Gal(a1-3)]Gal(b1-3)GlcNAc(b1-2)Man(a1-6)]Man(b1-4)GlcNAc(b1-4)GlcNAc
# How it was run: as §1
# [7] = biological target: Fuc(a1-2)[Gal(a1-3)]Gal(b1-3)GlcNAc(b1-2)Man(a1-3)[Fuc(a1-2)[Gal(a1-3)]Gal(b1-3)GlcNAc(b1-2)Man(a1-6)]Man(b1-4)GlcNAc(b1-4)[Fuc(a1-6)]GlcNAc
# How it was run: as §1
# [8] = biological target: Fuc(a1-2)[Gal(a1-3)]Gal(b1-3)GlcNAc(b1-3)GalNAc
# How it was run: as §1
# [9] = biological target: Fuc(a1-2)[Gal(a1-3)]Gal(b1-3)GlcNAc(b1-6)GalNAc
# How it was run: as §1
# [10] = biological target: Fuc(a1-2)[Gal(a1-3)]Gal(b1-4)Glc
# How it was run: as §1
# [11] = biological target: Fuc(a1-2)[Gal(a1-3)]Gal(b1-4)GlcNAc
# How it was run: as §1
# [12] = biological target: Fuc(a1-2)[Gal(a1-3)]Gal(b1-4)GlcNAc(b1-2)Man
# How it was run: as §1
# [13] = biological target: Fuc(a1-2)[Gal(a1-3)]Gal(b1-4)GlcNAc(b1-2)Man(a1-3)[Fuc(a1-2)[Gal(a1-3)]Gal(b1-4)GlcNAc(b1-2)Man(a1-6)]Man(b1-4)GlcNAc(b1-4)GlcNAc
# How it was run: as §1
# [14] = biological target: Fuc(a1-2)[Gal(a1-3)]Gal(b1-4)GlcNAc(b1-2)Man(a1-3)[Fuc(a1-2)[Gal(a1-3)]Gal(b1-4)GlcNAc(b1-2)Man(a1-6)]Man(b1-4)GlcNAc(b1-4)[Fuc(a1-6)]GlcNAc
# How it was run: as §1
# [15] = biological target: Fuc(a1-2)[Gal(a1-3)]Gal(b1-4)GlcNAc(b1-3)GalNAc
# How it was run: as §1
# [16] = biological target: Fuc(a1-2)[Gal(a1-3)]Gal(b1-4)GlcNAc(b1-3)[Fuc(a1-2)[Gal(a1-3)]Gal(b1-4)GlcNAc(b1-6)]GalNAc
# How it was run: as §1
# [17] = biological target: Fuc(a1-2)[Gal(a1-3)]Gal(b1-4)GlcNAc(b1-6)GalNAc
# How it was run: as §1
# [18] = biological target: Fuc(a1-2)[Gal(a1-3)]Gal(b1-4)[Fuc(a1-3)]Glc
# How it was run: as §1
# [19] = biological target: Fuc(a1-2)[Gal(a1-3)]Gal(b1-4)[Fuc(a1-3)]GlcNAc
# How it was run: as §1
# [20] = biological target: Fuc(a1-2)[Gal(a1-3)]Gal(b1-4)[Fuc(a1-3)]GlcNAc(b1-3)GalNAc
# How it was run: as §1
# [21] = biological target: Fuc(a1-2)[Gal(a1-4)]Gal(b1-4)GlcNAc
# How it was run: as §1
# [22] = biological target: Fuc(a1-2)[GalNAc(a1-3)]Gal
# How it was run: as §1
# [23] = biological target: Fuc(a1-2)[GalNAc(a1-3)]Gal(b1-3)GalNAc(a1-3)[Fuc(a1-2)]Gal(b1-4)GlcNAc
# How it was run: as §1
# [24] = biological target: Fuc(a1-2)[GalNAc(a1-3)]Gal(b1-3)GalNAc(b1-3)Gal(a1-4)Gal(b1-4)Glc
# How it was run: as §1
# [25] = biological target: Fuc(a1-2)[GalNAc(a1-3)]Gal(b1-3)GlcNAc
# How it was run: as §1
# [26] = biological target: Fuc(a1-2)[GalNAc(a1-3)]Gal(b1-3)GlcNAc(b1-2)Man(a1-3)[Fuc(a1-2)[GalNAc(a1-3)]Gal(b1-3)GlcNAc(b1-2)Man(a1-6)]Man(b1-4)GlcNAc(b1-4)GlcNAc
# How it was run: as §1
# [27] = biological target: Fuc(a1-2)[GalNAc(a1-3)]Gal(b1-3)GlcNAc(b1-2)Man(a1-3)[Fuc(a1-2)[GalNAc(a1-3)]Gal(b1-3)GlcNAc(b1-2)Man(a1-6)]Man(b1-4)GlcNAc(b1-4)[Fuc(a1-6)]GlcNAc
# How it was run: as §1
# [28] = biological target: Fuc(a1-2)[GalNAc(a1-3)]Gal(b1-3)GlcNAc(b1-3)GalNAc
# How it was run: as §1
# [29] = biological target: Fuc(a1-2)[GalNAc(a1-3)]Gal(b1-3)GlcNAc(b1-6)GalNAc
# How it was run: as §1
# [30] = biological target: Fuc(a1-2)[GalNAc(a1-3)]Gal(b1-4)Glc
# How it was run: as §1
# [31] = biological target: Fuc(a1-2)[GalNAc(a1-3)]Gal(b1-4)GlcNAc
# How it was run: as §1
# [32] = biological target: Fuc(a1-2)[GalNAc(a1-3)]Gal(b1-4)GlcNAc(b1-2)Man
# How it was run: as §1
# [33] = biological target: Fuc(a1-2)[GalNAc(a1-3)]Gal(b1-4)GlcNAc(b1-2)Man(a1-3)[Fuc(a1-2)[GalNAc(a1-3)]Gal(b1-4)GlcNAc(b1-2)Man(a1-6)]Man(b1-4)GlcNAc(b1-4)GlcNAc
# How it was run: as §1
# [34] = biological target: Fuc(a1-2)[GalNAc(a1-3)]Gal(b1-4)GlcNAc(b1-2)Man(a1-3)[Fuc(a1-2)[GalNAc(a1-3)]Gal(b1-4)GlcNAc(b1-2)Man(a1-6)]Man(b1-4)GlcNAc(b1-4)[Fuc(a1-6)]GlcNAc
# How it was run: as §1
# [35] = biological target: Fuc(a1-2)[GalNAc(a1-3)]Gal(b1-4)GlcNAc(b1-3)Gal(b1-4)GlcNAc
# How it was run: as §1
# [36] = biological target: Fuc(a1-2)[GalNAc(a1-3)]Gal(b1-4)GlcNAc(b1-3)Gal(b1-4)GlcNAc(b1-3)Gal(b1-4)GlcNAc
# How it was run: as §1
# [37] = biological target: Fuc(a1-2)[GalNAc(a1-3)]Gal(b1-4)GlcNAc(b1-3)GalNAc
# How it was run: as §1
# [38] = biological target: Fuc(a1-2)[GalNAc(a1-3)]Gal(b1-4)GlcNAc(b1-3)[Fuc(a1-2)[GalNAc(a1-3)]Gal(b1-4)GlcNAc(b1-6)]GalNAc
# How it was run: as §1
# [39] = biological target: Fuc(a1-2)[GalNAc(a1-3)]Gal(b1-4)GlcNAc(b1-6)GalNAc
# How it was run: as §1
# [40] = biological target: Fuc(a1-2)[GalNAc(a1-3)]Gal(b1-4)[Fuc(a1-3)]GlcNAc
# How it was run: as §1
# [41] = biological target: Fuc(a1-2)[GalNAc(a1-3)]Gal(b1-4)[Fuc(a1-3)]GlcNAc(b1-3)GalNAc
# How it was run: as §1
# [42] = biological target: Fuc(a1-2)[GalNAc(a1-4)]Gal(b1-4)GlcNAc
# How it was run: as §1
# [43] = biological target: Fuc(a1-2)[GalNAc(b1-3)]Gal
# How it was run: as §1
binder,measurement,setting,value
PX9961M-bvu-482-23-482 (Bacteroides vulgatus) (protein) WLDLAPSTQVDTETSINVLSDIEFTLNGIYSTMQSSDAYSGRLVYYGDVTGDDMQAVSSTKRTGNYYRFNFTKDNGPSSHWSYLYSIIQNCNLILMNVDKLSIDEDETEYKNDLKGQALAIRGMALFDLTRIFGYPYLKDNGASLGVPIVKELSTIDSKPARNTVAECYTEIISDLKNSTELLSGDFNKGKVNRWAAMTLLSRVYLYKGEYNEALTMAENAIKGAEKEGYALWTNEEYPTAWGNDASASNPGEILFEIVNLTTDSPGKESMGYLNSYNGYDDMCITCSFYQLLKKDPKDVRLKILSFDKKYYAYVNKYQPQQGENITDANIPLIRLSEAYLNAAEAAVQTGDNAKAVKYLNSIVQRANPENSVEGKTLTLENVLDERRKELVAEGHRMYDVIRNGMTVKRIDVKDSDINKTKHNTAYMEYDWNFHKILLPIPKKEMDANPNMKQNPGYVD,glycan array binding signal (z-score),[1],1.29
same,glycan array binding signal (z-score),Fuc(a1-2)Gal6S(b1-4)Glc,-0.841
same,glycan array binding signal (z-score),[2],0.138
same,glycan array binding signal (z-score),Fuc(a1-2)[Gal(a1-3)]Gal,0.516
same,glycan array binding signal (z-score),[3],0.222
same,glycan array binding signal (z-score),[4],-0.376
same,glycan array binding signal (z-score),[5],-0.45
same,glycan array binding signal (z-score),[6],0.126
same,glycan array binding signal (z-score),[7],-0.251
same,glycan array binding signal (z-score),[8],-1.05
same,glycan array binding signal (z-score),[9],0.159
same,glycan array binding signal (z-score),[10],0.247
same,glycan array binding signal (z-score),[11],-0.597
same,glycan array binding signal (z-score),[12],-0.129
same,glycan array binding signal (z-score),[13],1.68
same,glycan array binding signal (z-score),[14],0.208
same,glycan array binding signal (z-score),[15],-0.714
same,glycan array binding signal (z-score),[16],-0.008
same,glycan array binding signal (z-score),[17],0.341
same,glycan array binding signal (z-score),[18],-0.572
same,glycan array binding signal (z-score),[19],-0.364
same,glycan array binding signal (z-score),[20],1.17
same,glycan array binding signal (z-score),[21],0.547
same,glycan array binding signal (z-score),[22],-0.004
same,glycan array binding signal (z-score),[23],-0.77
same,glycan array binding signal (z-score),[24],0.188
same,glycan array binding signal (z-score),[25],-0.348
same,glycan array binding signal (z-score),[26],-0.044
same,glycan array binding signal (z-score),[27],-0.35
same,glycan array binding signal (z-score),[28],-0.308
same,glycan array binding signal (z-score),[29],-0.49
same,glycan array binding signal (z-score),[30],-0.742
same,glycan array binding signal (z-score),[31],-0.616
same,glycan array binding signal (z-score),[32],-0.735
same,glycan array binding signal (z-score),[33],0.898
same,glycan array binding signal (z-score),[34],-0.034
same,glycan array binding signal (z-score),[35],-0.419
same,glycan array binding signal (z-score),[36],0.797
same,glycan array binding signal (z-score),[37],-0.231
same,glycan array binding signal (z-score),[38],0.213
same,glycan array binding signal (z-score),[39],-0.373
same,glycan array binding signal (z-score),[40],0.826
same,glycan array binding signal (z-score),[41],-0.446
same,glycan array binding signal (z-score),[42],-0.779
same,glycan array binding signal (z-score),[43],0.245

# At a glance, part of the list above.
binder,measurement,setting,value
PX9961M-bvu-482-23-482 (Bacteroides vulgatus) (protein) WLDLAPSTQVDTETSINVLSDIEFTLNGIYSTMQSSDAYSGRLVYYGDVTGDDMQAVSSTKRTGNYYRFNFTKDNGPSSHWSYLYSIIQNCNLILMNVDKLSIDEDETEYKNDLKGQALAIRGMALFDLTRIFGYPYLKDNGASLGVPIVKELSTIDSKPARNTVAECYTEIISDLKNSTELLSGDFNKGKVNRWAAMTLLSRVYLYKGEYNEALTMAENAIKGAEKEGYALWTNEEYPTAWGNDASASNPGEILFEIVNLTTDSPGKESMGYLNSYNGYDDMCITCSFYQLLKKDPKDVRLKILSFDKKYYAYVNKYQPQQGENITDANIPLIRLSEAYLNAAEAAVQTGDNAKAVKYLNSIVQRANPENSVEGKTLTLENVLDERRKELVAEGHRMYDVIRNGMTVKRIDVKDSDINKTKHNTAYMEYDWNFHKILLPIPKKEMDANPNMKQNPGYVD,glycan array binding signal (z-score),[20],1.17
same,glycan array binding signal (z-score),[21],0.547
same,glycan array binding signal (z-score),[22],-0.004
same,glycan array binding signal (z-score),[23],-0.77
same,glycan array binding signal (z-score),[24],0.188
same,glycan array binding signal (z-score),[25],-0.348
same,glycan array binding signal (z-score),[26],-0.044
same,glycan array binding signal (z-score),[27],-0.35
